Laboratory results from the supplement of paper PMC10849652.
The other results are listed elsewhere or left out. Residues, ends and D or L forms follow the SMILES beside them. *: point of attachment. Cbz = O=C(OCc1ccccc1)*

Amino acid sequences for entries named in this document (tags omitted). A change or cut given only in a name is not applied to a line headed by its entry.
UniProt Q15833: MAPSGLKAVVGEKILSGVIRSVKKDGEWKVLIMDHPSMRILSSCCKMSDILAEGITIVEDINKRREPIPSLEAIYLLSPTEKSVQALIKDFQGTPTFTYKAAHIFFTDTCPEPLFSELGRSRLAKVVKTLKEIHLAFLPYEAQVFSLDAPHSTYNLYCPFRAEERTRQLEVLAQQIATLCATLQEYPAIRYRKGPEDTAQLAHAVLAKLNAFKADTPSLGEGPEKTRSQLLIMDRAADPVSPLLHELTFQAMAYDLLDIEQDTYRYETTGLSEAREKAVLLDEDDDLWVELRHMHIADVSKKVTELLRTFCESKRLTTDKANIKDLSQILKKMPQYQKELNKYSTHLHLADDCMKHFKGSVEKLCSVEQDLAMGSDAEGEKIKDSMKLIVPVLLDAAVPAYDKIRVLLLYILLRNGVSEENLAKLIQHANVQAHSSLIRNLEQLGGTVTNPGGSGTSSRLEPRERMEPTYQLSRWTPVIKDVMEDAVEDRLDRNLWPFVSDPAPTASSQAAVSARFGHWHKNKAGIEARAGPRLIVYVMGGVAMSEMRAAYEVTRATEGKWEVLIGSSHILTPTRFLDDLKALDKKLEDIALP
UniProt Q13395: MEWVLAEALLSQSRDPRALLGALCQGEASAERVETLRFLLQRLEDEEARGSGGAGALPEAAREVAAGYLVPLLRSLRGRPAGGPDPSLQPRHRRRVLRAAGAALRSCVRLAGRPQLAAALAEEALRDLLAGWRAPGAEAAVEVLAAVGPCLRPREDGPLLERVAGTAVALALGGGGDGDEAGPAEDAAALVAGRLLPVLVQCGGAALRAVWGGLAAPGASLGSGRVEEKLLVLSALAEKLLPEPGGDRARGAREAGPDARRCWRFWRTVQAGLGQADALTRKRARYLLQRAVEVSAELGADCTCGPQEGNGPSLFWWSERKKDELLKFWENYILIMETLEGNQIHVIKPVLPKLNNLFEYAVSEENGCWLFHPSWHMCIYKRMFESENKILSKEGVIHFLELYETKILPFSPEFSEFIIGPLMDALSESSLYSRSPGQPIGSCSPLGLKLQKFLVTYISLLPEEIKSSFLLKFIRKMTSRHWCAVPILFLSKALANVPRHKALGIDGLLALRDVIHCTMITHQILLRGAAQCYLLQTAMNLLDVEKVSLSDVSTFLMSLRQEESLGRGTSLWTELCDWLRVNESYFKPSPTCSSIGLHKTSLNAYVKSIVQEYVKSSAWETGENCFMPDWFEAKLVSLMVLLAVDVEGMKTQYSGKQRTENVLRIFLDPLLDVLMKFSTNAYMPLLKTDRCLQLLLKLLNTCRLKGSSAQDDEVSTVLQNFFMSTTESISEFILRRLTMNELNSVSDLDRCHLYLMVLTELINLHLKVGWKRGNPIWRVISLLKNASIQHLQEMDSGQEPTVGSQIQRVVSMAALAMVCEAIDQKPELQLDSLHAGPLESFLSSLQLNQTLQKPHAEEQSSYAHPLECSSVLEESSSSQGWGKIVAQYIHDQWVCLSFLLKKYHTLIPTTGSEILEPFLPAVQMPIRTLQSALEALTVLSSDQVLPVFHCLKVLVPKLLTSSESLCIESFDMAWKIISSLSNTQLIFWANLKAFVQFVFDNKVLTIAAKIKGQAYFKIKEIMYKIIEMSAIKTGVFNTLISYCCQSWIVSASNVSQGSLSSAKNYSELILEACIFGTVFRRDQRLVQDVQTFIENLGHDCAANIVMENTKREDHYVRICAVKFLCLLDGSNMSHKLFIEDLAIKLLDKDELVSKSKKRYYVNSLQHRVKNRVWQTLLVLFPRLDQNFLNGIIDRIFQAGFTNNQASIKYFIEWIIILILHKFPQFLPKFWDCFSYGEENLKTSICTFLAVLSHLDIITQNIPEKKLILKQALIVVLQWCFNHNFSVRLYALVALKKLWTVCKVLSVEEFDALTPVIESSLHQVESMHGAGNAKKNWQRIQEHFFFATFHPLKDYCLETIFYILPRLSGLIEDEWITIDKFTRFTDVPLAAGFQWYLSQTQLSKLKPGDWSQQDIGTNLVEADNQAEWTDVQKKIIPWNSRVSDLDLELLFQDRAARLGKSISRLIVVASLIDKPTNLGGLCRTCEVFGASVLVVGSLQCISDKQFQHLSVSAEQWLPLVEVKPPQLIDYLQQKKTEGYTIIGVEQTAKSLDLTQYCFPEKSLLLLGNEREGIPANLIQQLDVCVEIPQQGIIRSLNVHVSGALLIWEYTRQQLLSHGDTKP
UniProt O43815: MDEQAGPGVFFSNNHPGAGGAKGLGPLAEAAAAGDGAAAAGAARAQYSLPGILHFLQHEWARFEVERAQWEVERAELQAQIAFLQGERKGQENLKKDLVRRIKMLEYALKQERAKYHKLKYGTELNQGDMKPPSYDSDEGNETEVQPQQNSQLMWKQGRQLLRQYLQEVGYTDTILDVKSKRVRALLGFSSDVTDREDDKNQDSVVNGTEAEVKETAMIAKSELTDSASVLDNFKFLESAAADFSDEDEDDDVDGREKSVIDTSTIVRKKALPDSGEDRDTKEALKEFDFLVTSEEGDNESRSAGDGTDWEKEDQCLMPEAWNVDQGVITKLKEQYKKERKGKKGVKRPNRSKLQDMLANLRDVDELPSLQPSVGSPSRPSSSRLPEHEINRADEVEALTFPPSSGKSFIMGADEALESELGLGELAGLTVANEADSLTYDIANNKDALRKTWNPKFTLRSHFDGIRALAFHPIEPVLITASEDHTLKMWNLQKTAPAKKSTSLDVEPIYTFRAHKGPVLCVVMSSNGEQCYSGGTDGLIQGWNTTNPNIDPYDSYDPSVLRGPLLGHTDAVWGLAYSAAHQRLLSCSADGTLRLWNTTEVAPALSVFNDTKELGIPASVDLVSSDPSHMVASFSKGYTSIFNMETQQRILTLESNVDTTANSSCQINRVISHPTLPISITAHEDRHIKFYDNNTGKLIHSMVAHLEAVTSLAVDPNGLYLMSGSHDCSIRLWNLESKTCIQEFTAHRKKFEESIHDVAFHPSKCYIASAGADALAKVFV
UniProt Q15527: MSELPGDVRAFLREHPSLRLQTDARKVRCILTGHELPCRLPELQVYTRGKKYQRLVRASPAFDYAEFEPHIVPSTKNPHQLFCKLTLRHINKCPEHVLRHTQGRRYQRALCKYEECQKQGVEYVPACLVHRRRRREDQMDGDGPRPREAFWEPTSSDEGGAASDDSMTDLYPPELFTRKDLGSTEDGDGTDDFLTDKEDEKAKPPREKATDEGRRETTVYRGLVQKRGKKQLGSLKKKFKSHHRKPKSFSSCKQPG
UniProt Q93075: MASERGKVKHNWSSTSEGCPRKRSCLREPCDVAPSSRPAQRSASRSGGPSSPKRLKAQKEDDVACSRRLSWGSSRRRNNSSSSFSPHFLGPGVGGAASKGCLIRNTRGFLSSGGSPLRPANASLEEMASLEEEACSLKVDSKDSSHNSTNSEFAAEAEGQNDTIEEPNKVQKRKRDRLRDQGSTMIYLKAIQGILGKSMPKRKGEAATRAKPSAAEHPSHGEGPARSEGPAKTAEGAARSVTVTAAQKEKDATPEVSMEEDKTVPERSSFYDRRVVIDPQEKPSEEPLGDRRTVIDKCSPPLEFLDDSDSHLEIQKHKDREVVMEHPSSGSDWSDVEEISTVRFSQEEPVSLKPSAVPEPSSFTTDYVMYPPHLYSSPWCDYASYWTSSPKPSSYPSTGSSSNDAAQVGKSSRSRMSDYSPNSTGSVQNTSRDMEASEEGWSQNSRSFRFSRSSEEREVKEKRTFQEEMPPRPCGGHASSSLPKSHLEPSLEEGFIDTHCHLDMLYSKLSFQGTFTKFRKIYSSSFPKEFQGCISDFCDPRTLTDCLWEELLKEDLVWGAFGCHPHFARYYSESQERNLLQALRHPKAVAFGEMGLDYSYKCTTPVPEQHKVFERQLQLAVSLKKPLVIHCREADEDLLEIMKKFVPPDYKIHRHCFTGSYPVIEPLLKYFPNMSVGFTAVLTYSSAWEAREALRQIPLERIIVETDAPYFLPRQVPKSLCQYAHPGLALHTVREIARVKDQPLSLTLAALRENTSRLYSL
UniProt Q9Y2Z0: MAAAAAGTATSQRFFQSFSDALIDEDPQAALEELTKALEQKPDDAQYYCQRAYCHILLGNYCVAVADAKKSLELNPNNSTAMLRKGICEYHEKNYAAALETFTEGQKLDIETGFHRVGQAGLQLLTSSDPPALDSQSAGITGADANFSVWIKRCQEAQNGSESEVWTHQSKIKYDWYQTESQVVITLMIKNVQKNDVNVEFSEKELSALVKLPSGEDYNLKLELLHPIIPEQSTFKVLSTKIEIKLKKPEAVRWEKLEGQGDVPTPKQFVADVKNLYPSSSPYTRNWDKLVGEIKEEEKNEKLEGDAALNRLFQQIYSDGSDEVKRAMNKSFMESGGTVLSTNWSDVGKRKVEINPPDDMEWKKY
UniProt Q13033: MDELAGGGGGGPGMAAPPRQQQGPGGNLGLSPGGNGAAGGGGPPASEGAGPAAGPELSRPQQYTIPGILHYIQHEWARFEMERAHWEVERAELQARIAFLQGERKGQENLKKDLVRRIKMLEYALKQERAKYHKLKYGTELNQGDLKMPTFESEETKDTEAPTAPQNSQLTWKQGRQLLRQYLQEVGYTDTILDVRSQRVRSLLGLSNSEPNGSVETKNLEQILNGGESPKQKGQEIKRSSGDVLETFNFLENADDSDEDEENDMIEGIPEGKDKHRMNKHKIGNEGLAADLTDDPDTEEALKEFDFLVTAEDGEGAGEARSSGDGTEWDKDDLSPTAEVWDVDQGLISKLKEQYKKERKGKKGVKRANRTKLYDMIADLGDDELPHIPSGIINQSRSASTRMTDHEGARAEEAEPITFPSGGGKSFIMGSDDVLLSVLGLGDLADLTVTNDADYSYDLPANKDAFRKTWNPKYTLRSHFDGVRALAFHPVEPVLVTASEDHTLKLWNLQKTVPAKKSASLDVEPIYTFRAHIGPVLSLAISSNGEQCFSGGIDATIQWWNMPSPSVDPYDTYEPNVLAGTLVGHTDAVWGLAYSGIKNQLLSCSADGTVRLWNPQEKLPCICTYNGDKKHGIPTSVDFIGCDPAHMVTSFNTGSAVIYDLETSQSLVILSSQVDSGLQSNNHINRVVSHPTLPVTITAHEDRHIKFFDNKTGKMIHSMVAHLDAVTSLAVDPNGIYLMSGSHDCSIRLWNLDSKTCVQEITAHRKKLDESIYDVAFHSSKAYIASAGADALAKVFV
UniProt P50225: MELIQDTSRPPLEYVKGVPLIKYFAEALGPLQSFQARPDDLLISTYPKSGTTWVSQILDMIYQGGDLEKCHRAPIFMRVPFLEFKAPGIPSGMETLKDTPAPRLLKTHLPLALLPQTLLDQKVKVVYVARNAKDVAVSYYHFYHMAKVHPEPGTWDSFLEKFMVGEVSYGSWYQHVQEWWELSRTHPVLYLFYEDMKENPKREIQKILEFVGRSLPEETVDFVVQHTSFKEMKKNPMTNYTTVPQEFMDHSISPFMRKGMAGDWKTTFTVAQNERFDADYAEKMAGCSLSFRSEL
UniProt P27105: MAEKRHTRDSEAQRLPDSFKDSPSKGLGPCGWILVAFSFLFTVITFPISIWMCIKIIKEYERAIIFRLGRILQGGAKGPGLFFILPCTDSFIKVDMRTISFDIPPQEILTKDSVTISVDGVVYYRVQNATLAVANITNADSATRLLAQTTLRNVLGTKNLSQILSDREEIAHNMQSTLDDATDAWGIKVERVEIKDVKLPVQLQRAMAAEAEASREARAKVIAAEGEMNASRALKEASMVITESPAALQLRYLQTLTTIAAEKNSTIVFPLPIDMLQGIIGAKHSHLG
UniProt Q16594, whole entry, looked up: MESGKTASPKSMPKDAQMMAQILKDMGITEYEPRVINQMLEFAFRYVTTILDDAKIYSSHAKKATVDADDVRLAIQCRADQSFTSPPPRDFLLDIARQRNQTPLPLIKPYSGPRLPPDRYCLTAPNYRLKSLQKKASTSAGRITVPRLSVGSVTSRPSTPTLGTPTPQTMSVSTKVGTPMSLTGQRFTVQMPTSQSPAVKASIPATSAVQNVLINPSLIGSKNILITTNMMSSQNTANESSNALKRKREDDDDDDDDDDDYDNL
UniProt P53597: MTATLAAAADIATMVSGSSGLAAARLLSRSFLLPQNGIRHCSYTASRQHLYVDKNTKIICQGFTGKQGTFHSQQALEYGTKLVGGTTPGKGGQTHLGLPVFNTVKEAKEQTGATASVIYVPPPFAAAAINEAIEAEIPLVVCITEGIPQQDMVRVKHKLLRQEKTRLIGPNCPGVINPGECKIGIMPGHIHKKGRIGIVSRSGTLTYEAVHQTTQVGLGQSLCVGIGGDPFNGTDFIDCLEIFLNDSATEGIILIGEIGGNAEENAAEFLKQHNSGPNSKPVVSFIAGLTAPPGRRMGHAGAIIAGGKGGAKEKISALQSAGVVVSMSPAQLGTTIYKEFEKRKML

Tests used:
Test in all cases: log2 fold change, soluble protein after heating vs DMSO (PISA); higher = thermal stabilisation; K562 cells, 10 uM, 30 min; active = over 0.2 and 3.5 SD of the protein, either way, in both replicates (recomputed)
IRAK-1-4 Inhibitor I = compound: C1COCCN1CCN2C3=CC=CC=C3N=C2NC(=O)C4=CC(=CC=C4)[N+](=O)[O-] [IRAK-1-4 Inhibitor I]
Outline: (§1)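 K562 cells at 2×10^6 cells/mL were treated with 10 μM compound for 30 min. Aliquots were heated for 3 min across 48°C-58°C, pooled, and extracted in PBS with 0.5% NP-40 at 4°C; soluble protein was the supernatant after 21,000xg for 90 min. Soluble protein was quantified by TMTpro 16plex LC-MS/MS with channel sums equalised, and reported as log2 fold change in thermal stability against DMSO controls, with values from duplicates.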

ibrutinib = compound: C=CC(=O)N1CCC[C@@H](n2nc(-c3ccc(Oc4ccccc4)cc3)c3c(N)ncnc32)C1 [ibrutinib]
Outline: as §1

[1] = compound: CC(=O)c1cnc2ccc(-c3cc(Cl)c(O)c(Cl)c3)nc2c1N[C@H]1CC[C@H](CN(C)C)CC1
Outline: as §1

ralimetinib = compound: CC(C)(C)Cn1c(N)nc2ccc(-c3[nH]c(C(C)(C)C)nc3-c3ccc(F)cc3)nc21 [ralimetinib]
Outline: as §1

[2] = compound: CC(C)(O)CC(=O)NCCn1ccc2ncnc(Nc3ccc(Oc4cccc(C(F)(F)F)c4)c(Cl)c3)c21
Outline: as §1

[3] = compound: CC(C)C1=C2N=C(C=C(N2N=C1)NCC3=CC=CC=C3)NCCCCCCN
Outline: as §1

[4] = compound: CC(C)C[C@@H](C=O)NC(=O)[C@H](CC(C)C)NC(=O)[C@H](CC(C)C)NC(=O)OCc1ccccc1
Outline: as §1

pinometostat = compound: CC(C)N(C[C@H]1O[C@@H](n2cnc3c(N)ncnc32)[C@H](O)[C@@H]1O)[C@H]1C[C@@H](CCc2nc3cc(C(C)(C)C)ccc3[nH]2)C1 [pinometostat]
Outline: as §1

[5] = compound: CC1=C(C2=C(C=C1)C(=O)C3=CC=CC=C3N2CCCN)C
Outline: as §1

[6] = compound: CC1=C(C=C(C=C1)NC(=O)C2=CC(=CC=C2)C(C)(C)C#N)NC3=CC4=C(C=C3)N=CN(C4=O)C
Outline: as §1

[7] = compound: CC1=C(C=C(C=C1)NC(=O)C2=CC(=CC=C2)N(C)C)NC(=O)C3=CC=C(C=C3)O
Outline: as §1

[8] = compound: CC1=CC=C(C=C1)SC2=C3C=C(SC3=CN=C2)C(=O)N
Outline: as §1

[9] = compound: CC1=NC(=CC=C1)C2=C(N=C(N2)C(C)(C)C)C3=CC4=NC=CN=C4C=C3
Outline: as §1

Nexturastat A = compound: CCCCN(Cc1ccc(C(=O)NO)cc1)C(=O)Nc1ccccc1 [Nexturastat A]
Outline: as §1

vemurafenib = compound: CCCS(=O)(=O)Nc1ccc(F)c(C(=O)c2c[nH]c3ncc(-c4ccc(Cl)cc4)cc23)c1F [vemurafenib]
Outline: as §1

[10] = compound: CCCS(=O)(=O)Nc1ccc(F)c(C(=O)c2c[nH]c3ncc(Cl)cc23)c1F
Outline: as §1

[11] = compound: CCCc1cc(C)[nH]c(=O)c1CNC(=O)c1cc(-c2ccnc(N3CCN(C)CC3)c2)cc2c1cnn2C(C)C
Outline: as §1

givinostat = compound: CCN(CC)Cc1ccc2cc(COC(=O)Nc3ccc(C(=O)NO)cc3)ccc2c1 [givinostat]
Outline: as §1

barasertib = compound: CCN(CCCOc1ccc2c(Nc3cc(CC(=O)Nc4cccc(F)c4)[nH]n3)ncnc2c1)CCOP(=O)(O)O [barasertib]
Outline: as §1

[12] = compound: CC1=C(C(CC(=O)N1)C2=CC=C(C=C2)C(F)(F)F)C(=O)NC3=C(C=C4C(=C3)C=NN4)F
Outline: as §1

Target	log2 fold change (IRAK-1-4 Inhibitor I)	log2 fold change (ibrutinib)	log2 fold change [1]	log2 fold change (ralimetinib)	log2 fold change [2]	log2 fold change [3]	log2 fold change [4]	log2 fold change (pinometostat)	log2 fold change [5]	log2 fold change [6]	log2 fold change [7]	log2 fold change [8]	log2 fold change [9]	log2 fold change (Nexturastat A)	log2 fold change (vemurafenib)	log2 fold change [10]	log2 fold change [11]	log2 fold change (givinostat)	log2 fold change (barasertib)	log2 fold change [12]
STXBP2 isoform 3 (UniProt Q15833)	inactive: -0.11	inactive: -0.057	inactive: -0.021	inactive: 0.172	inactive: -0.065	active: -0.364	inactive: 0.147	inactive: 0.189	inactive: 0.025	inactive: 0	inactive: -0.042	inactive: 0.036	inactive: -0.017	inactive: 0.128	inactive: 0.155	inactive: 0.032	inactive: 0.063	inactive: 0.125	inactive: 0.068	
TARBP1 (UniProt Q13395)	inactive: 0.062	inactive: -0.007	inactive: -0.01	inactive: 0.003	inactive: -0.074	inactive: -0.066	inactive: 0.009	inactive: 0.041	inactive: 0.184	inactive: 0.069	inactive: 0.001	inactive: 0.002	inactive: -0.01	inactive: 0.016	inactive: 0.036	inactive: -0.062	inactive: -0.067	inactive: -0.017	inactive: 0.023	
SYK (UniProt P43405)	inactive: -0.192	inactive: 0.056	inactive: -0.277	inactive: 0.241	inactive: -0.1	inactive: 0.128	inactive: 0.048	inactive: 0.19	inactive: -0.425		inactive: 0.015	inactive: -0.025	inactive: -0.386	active: 0.901	inactive: -0.097	inactive: -0.058		inactive: 0.307	inactive: -0.094	
STRN (UniProt O43815)	inactive: 0.029	inactive: 0.073	inactive: -0.046	inactive: 0.13	inactive: -0.023	inactive: 0.03	inactive: -0.066	inactive: -0.002	inactive: 0	inactive: -0.019	inactive: -0.046	inactive: 0.019	inactive: -0.024	inactive: 0.001	inactive: 0.073	inactive: 0.035	inactive: -0.038	inactive: 0.002	inactive: 0.045	
SURF2 (UniProt Q15527)	inactive: 0.071	inactive: 0.004	inactive: -0.043	inactive: -0.117	inactive: -0.014	inactive: 0.131	inactive: 0.022	inactive: 0.01	active: -0.238	inactive: 0.022	inactive: -0.007	inactive: 0.035	inactive: -0.027	inactive: 0.033	inactive: -0.037	inactive: -0.002	inactive: -0.029	inactive: 0.013	inactive: 0.035	
TATDN2 (UniProt Q93075)	inactive: -0.006	inactive: 0.072	active: -0.402		inactive: 0.102	inactive: 0.058		inactive: 0.047	inactive: -0.218	inactive: -0.256		inactive: 0.048	inactive: -0.07	inactive: 0.092	inactive: 0.168	inactive: 0.019		inactive: -0.004	inactive: 0.126	
TBC1D10A (UniProt Q9BXI6)	inactive: -0.027	inactive: -0.077		inactive: 0.142	inactive: -0.107		inactive: 0.142	inactive: 0.15	inactive: 0.01		inactive: -0.05	inactive: -0.103	inactive: -0.093	inactive: 0.07	inactive: 0.139	inactive: -0.054			inactive: 0.229	
SYNE2 isoform 2 (UniProt Q8WXH0)	inactive: 0.046	inactive: -0.037	inactive: 0.059	inactive: 0.01		inactive: 0.078	inactive: 0.059	inactive: -0.024	inactive: 0.044	inactive: -0.084	inactive: 0.014	inactive: 0.064	inactive: -0.131		inactive: -0.04	inactive: 0	inactive: -0.171	inactive: 0.43	inactive: 0.079	
SUGT1 isoform 2 (UniProt Q9Y2Z0)	inactive: 0	inactive: 0.025		inactive: -0.035		inactive: 0.016	inactive: 0.133	inactive: 0.053	inactive: 0.096		inactive: -0.019	inactive: 0.052	inactive: 0.009		inactive: -0.034	inactive: -0.071	inactive: 0.102	inactive: -0.365	inactive: 0.083	
STRN3 isoform 2 (UniProt Q13033)	inactive: 0.114	inactive: -0.013	inactive: -0.456		inactive: 0.053	inactive: -0.031		inactive: 0.03	inactive: 0.027			inactive: 0.011	inactive: -0.078	inactive: -0.118	inactive: -0.048	inactive: -0.115	inactive: -0.087	inactive: -0.135	inactive: -0.035	inactive: -0.044
SULT1A1 (UniProt P50225)	inactive: -0.077	inactive: 0.044	inactive: -0.099	inactive: -0.029	inactive: -0.104	inactive: -0.104	inactive: -0.056	inactive: 0.001	inactive: 0.048	inactive: 0.015	inactive: 0.162	inactive: -0.022	inactive: 0.025	inactive: -0.023	inactive: 0.135	inactive: 0.037	inactive: 0.092	inactive: 0.044	inactive: 0.068	
STOM (UniProt P27105)	inactive: -0.039	inactive: 0.019	inactive: -0.018	inactive: -0.054	inactive: 0.004	inactive: -0.064	inactive: 0.14	inactive: 0.028	inactive: 0.039	inactive: -0.035	inactive: 0.025	inactive: -0.041	inactive: -0.002	inactive: 0.007	inactive: 0.01	inactive: -0.053	inactive: -0.092	inactive: 0.005	inactive: -0.017	
TAMM41 isoform 3 (UniProt Q96BW9)	inactive: 0.075	inactive: 0.022	inactive: -0.061	inactive: -0.04	inactive: -0.172	inactive: -0.214	inactive: 0.043	inactive: 0.015	inactive: 0.169	inactive: -0.021	inactive: -0.013	inactive: 0.049	inactive: 0.056	inactive: -0.084	inactive: -0.006	inactive: 0.04	inactive: -0.062	inactive: 0.036	inactive: 0.046	
TAF9 (UniProt Q16594)	inactive: -0.029	inactive: 0.027	inactive: 0.049	inactive: 0.025	inactive: 0.069	inactive: 0.024	inactive: 0.112	inactive: -0.072	inactive: -0.005	inactive: 0.125	inactive: -0.007	inactive: -0.092	inactive: 0.018	inactive: 0	inactive: -0.017	inactive: -0.097	inactive: 0.02	inactive: 0.019	inactive: -0.019	
TAF9B (UniProt Q9HBM6)	inactive: 0.081	inactive: -0.102			inactive: -0.003	inactive: 0.005		inactive: -0.016	inactive: 0.057	inactive: -0.102		inactive: -0.028	inactive: -0.127	inactive: 0.068	inactive: 0.088	inactive: -0.028	inactive: -0.042	inactive: -0.065	inactive: -0.055	
SUOX (UniProt P51687)	inactive: 0.123	inactive: -0.007	inactive: 0.003	inactive: 0.012	inactive: -0.022	inactive: 0.042	inactive: 0.013	inactive: 0.016	inactive: 0.02	inactive: -0.012	inactive: -0.002	inactive: -0.007	active: -0.334	inactive: -0.021	inactive: -0.046	inactive: -0.051	inactive: 0.023	inactive: -0.033	inactive: 0.007	
SUCLG1 (UniProt P53597)	inactive: 0.048	inactive: 0.01	inactive: -0.018	inactive: -0.039	inactive: -0.07	inactive: -0.058	inactive: -0.01	inactive: -0.04	inactive: 0.053	inactive: -0.02	inactive: -0.008	inactive: -0.001	inactive: 0.025	inactive: -0.032	inactive: 0.009	inactive: 0	inactive: -0.006	inactive: -0.102	inactive: 0.019	

2 successive records out of the list so far:
Target	log2 fold change (IRAK-1-4 Inhibitor I)	log2 fold change (ibrutinib)	log2 fold change [1]	log2 fold change (ralimetinib)	log2 fold change [2]	log2 fold change [3]	log2 fold change [4]	log2 fold change (pinometostat)	log2 fold change [5]	log2 fold change [6]	log2 fold change [7]	log2 fold change [8]	log2 fold change [9]	log2 fold change (Nexturastat A)	log2 fold change (vemurafenib)	log2 fold change [10]	log2 fold change [11]	log2 fold change (givinostat)	log2 fold change (barasertib)	log2 fold change [12]
SUOX (UniProt P51687)	inactive: 0.123	inactive: -0.007	inactive: 0.003	inactive: 0.012	inactive: -0.022	inactive: 0.042	inactive: 0.013	inactive: 0.016	inactive: 0.02	inactive: -0.012	inactive: -0.002	inactive: -0.007	active: -0.334	inactive: -0.021	inactive: -0.046	inactive: -0.051	inactive: 0.023	inactive: -0.033	inactive: 0.007	
SUCLG1 (UniProt P53597)	inactive: 0.048	inactive: 0.01	inactive: -0.018	inactive: -0.039	inactive: -0.07	inactive: -0.058	inactive: -0.01	inactive: -0.04	inactive: 0.053	inactive: -0.02	inactive: -0.008	inactive: -0.001	inactive: 0.025	inactive: -0.032	inactive: 0.009	inactive: 0	inactive: -0.006	inactive: -0.102	inactive: 0.019	
